The target of test [1] is T1, FLAG-tagged Plk4 CTD (581–970) (UniProt O00444).
T1 sequence: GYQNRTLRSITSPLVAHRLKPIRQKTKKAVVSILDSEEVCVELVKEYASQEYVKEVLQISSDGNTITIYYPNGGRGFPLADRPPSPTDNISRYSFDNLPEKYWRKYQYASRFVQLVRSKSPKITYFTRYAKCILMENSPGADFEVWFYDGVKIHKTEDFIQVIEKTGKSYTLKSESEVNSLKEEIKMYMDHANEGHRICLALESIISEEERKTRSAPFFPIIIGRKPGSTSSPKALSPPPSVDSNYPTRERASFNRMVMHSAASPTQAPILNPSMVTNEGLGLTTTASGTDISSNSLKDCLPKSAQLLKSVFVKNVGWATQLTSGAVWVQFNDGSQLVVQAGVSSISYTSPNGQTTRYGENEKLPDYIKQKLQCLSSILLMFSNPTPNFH
The test can be described thus: affinity purification with mass spectrometry; FLAG-tagged Plk4 CTD(581–970) stably expressed in HEK293T cells, anti-FLAG immunoprecipitation; SDS-PAGE bands, nanoLC-tandem MS (Expt. 2).

Sequences of proteins named here, by UniProt entry; tags and fusion partners are left off.
UniProt Q16531: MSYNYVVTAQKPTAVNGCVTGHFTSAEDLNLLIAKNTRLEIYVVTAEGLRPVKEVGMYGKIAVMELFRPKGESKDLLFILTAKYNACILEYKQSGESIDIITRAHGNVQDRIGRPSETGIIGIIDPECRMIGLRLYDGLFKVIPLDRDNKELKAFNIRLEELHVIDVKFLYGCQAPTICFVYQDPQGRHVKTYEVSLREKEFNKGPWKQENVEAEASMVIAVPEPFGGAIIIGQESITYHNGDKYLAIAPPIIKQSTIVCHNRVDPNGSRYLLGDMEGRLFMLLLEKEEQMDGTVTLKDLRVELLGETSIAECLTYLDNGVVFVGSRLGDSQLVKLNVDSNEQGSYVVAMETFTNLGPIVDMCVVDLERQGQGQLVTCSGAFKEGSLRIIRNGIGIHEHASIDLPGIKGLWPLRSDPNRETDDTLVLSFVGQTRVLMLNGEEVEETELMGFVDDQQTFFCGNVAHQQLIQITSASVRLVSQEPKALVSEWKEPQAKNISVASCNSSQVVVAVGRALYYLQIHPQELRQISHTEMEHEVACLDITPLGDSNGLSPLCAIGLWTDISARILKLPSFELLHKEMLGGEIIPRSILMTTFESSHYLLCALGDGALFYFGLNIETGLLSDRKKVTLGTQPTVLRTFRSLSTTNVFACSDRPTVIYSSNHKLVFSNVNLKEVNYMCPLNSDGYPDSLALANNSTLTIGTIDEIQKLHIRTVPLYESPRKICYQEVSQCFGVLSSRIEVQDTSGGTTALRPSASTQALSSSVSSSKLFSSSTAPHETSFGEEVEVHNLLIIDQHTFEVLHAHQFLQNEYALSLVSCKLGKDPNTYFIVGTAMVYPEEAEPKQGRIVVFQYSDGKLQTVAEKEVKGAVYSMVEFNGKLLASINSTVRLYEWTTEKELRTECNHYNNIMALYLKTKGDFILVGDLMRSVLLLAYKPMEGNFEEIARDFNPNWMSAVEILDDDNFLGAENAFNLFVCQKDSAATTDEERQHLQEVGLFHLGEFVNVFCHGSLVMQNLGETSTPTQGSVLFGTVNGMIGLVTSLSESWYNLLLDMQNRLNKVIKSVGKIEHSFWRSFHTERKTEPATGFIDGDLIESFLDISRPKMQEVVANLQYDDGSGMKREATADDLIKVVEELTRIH
UniProt Q9Y4B6: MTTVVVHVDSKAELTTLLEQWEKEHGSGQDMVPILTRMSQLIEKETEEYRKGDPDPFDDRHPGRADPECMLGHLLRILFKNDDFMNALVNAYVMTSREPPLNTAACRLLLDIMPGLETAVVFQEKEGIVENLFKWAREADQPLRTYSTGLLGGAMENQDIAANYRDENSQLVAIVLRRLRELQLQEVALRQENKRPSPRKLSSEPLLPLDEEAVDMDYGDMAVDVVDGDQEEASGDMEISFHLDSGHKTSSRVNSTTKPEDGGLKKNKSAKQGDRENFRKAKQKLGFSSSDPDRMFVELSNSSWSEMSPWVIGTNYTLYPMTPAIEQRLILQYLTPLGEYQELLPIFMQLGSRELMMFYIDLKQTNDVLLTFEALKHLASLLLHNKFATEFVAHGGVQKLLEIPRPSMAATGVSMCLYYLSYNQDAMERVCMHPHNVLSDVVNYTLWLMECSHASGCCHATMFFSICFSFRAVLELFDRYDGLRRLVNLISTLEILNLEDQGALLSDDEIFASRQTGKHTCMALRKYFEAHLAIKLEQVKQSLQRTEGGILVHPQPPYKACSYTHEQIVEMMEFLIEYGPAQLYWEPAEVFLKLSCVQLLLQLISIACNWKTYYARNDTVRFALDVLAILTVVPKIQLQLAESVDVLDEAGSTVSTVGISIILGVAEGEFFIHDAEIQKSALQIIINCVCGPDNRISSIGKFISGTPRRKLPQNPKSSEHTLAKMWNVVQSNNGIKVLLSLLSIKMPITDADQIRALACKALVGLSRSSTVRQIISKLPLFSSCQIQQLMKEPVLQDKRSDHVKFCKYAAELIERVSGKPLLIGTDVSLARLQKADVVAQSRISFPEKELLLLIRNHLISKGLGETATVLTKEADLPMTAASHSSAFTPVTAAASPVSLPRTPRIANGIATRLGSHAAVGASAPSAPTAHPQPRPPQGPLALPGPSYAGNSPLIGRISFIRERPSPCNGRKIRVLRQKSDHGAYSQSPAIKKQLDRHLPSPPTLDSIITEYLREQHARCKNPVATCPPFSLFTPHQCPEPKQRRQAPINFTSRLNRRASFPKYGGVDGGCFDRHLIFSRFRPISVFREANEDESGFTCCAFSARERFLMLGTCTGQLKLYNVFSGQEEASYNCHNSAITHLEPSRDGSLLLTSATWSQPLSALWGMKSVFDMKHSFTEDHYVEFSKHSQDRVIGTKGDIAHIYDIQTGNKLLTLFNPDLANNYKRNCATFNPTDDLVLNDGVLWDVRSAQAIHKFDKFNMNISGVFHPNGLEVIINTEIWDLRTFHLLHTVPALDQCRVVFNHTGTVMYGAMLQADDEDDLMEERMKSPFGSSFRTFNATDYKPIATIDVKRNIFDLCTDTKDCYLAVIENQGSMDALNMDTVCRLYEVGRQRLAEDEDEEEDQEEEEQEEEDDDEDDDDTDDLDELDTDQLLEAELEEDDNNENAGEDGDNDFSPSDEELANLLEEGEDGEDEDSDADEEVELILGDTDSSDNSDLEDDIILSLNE
UniProt Q13619: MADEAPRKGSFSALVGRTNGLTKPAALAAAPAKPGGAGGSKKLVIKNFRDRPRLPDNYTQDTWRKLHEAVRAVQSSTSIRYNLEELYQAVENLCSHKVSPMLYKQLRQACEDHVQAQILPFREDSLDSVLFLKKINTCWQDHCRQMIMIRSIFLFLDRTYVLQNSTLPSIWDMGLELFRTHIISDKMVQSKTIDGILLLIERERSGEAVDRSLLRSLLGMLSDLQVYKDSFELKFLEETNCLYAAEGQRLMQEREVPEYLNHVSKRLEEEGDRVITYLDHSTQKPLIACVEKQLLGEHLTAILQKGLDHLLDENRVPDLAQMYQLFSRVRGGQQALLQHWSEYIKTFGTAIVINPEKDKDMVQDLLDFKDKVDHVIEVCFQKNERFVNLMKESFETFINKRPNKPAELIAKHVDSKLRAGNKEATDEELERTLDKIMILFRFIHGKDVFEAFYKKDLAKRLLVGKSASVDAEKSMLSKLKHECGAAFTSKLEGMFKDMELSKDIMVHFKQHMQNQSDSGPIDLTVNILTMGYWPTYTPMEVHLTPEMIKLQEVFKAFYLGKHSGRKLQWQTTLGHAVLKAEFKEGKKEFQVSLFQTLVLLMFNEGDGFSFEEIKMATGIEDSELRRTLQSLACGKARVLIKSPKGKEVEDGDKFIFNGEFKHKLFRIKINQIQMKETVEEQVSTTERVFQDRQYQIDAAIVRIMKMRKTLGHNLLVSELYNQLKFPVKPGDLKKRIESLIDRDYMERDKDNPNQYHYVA
UniProt O94986: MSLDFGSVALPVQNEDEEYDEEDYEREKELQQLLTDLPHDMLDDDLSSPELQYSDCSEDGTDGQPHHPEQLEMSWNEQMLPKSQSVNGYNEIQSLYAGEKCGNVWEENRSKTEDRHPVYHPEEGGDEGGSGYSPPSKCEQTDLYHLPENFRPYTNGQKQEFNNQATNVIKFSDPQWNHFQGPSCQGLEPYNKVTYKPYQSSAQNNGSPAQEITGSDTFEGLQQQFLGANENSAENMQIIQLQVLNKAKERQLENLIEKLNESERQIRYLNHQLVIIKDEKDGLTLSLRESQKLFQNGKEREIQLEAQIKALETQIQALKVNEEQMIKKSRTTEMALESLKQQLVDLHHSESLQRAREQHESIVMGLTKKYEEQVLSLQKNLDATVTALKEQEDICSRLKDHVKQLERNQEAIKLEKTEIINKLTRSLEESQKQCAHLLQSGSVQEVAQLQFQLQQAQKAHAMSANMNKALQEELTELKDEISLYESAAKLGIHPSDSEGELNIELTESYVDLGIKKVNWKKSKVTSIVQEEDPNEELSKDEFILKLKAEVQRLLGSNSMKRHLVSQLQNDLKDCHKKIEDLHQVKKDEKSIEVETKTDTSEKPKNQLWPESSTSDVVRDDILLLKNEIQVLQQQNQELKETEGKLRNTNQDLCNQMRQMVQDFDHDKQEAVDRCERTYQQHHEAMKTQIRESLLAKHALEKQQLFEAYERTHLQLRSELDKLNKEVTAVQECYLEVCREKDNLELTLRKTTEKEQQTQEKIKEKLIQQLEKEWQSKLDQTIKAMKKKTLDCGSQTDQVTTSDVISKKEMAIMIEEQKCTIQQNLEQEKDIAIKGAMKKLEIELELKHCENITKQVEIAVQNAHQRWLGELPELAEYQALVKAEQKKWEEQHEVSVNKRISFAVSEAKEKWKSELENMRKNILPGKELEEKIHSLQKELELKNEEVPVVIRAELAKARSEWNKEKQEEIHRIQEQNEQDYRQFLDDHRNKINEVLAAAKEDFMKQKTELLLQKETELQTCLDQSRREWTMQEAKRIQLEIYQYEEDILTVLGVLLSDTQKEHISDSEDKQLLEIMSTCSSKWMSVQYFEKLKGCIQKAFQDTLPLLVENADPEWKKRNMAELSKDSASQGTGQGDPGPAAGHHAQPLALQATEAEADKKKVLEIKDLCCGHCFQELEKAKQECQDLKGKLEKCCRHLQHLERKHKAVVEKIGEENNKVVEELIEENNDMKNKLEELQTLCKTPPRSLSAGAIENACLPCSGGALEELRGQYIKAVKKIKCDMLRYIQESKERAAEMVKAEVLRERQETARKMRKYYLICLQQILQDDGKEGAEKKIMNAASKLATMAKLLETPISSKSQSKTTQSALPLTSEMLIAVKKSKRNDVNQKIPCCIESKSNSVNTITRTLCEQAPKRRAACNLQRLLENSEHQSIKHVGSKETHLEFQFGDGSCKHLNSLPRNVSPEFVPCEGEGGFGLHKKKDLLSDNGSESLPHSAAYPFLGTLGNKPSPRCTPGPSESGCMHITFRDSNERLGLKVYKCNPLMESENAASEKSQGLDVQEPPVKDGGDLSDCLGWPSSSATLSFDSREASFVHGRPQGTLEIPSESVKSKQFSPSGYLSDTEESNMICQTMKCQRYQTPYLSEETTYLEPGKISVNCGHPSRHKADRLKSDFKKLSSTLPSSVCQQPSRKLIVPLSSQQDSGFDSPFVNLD
UniProt Q13620: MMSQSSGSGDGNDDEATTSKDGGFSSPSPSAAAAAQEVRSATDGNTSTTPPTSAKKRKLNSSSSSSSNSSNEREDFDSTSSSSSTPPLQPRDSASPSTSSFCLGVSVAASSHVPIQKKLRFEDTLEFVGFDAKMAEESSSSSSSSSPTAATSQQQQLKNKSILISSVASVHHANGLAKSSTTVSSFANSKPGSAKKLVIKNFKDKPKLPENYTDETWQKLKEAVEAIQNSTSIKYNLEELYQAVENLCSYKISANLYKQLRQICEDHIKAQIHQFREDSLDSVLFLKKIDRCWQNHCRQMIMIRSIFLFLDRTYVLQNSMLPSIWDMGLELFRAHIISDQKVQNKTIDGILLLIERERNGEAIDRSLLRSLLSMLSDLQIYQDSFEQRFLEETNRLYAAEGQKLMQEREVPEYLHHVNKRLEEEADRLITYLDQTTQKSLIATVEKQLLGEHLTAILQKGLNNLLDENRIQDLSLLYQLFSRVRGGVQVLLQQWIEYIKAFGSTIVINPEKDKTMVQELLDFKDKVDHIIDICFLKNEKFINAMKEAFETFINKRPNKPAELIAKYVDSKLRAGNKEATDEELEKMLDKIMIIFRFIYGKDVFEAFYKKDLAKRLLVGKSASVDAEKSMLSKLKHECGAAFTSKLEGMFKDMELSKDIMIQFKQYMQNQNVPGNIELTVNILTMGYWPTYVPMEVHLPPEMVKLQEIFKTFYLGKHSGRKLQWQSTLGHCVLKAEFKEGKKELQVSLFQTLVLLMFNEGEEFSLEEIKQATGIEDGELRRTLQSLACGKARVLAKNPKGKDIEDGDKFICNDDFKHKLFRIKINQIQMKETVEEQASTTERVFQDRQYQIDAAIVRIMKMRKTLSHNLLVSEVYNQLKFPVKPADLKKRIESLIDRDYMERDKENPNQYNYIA

In test [2] the target is T2, ZZ-tagged Plk4 CPB (581–884) (UniProt O00444).
T2 sequence: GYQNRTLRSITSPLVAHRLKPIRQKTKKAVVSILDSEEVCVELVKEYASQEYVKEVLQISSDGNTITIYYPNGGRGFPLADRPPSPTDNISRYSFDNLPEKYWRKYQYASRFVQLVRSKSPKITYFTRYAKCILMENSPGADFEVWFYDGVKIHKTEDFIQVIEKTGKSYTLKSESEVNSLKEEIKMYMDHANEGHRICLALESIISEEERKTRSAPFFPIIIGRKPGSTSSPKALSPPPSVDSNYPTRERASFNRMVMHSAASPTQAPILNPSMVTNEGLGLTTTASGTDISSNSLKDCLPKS
Put plainly: affinity purification with mass spectrometry; ZZ-tagged Plk4 CPB(581–884) in lysate of transfected HEK293T cells, human IgG column, AcTEV digestion, elution with TBSN buffer; SDS-PAGE bands, nanoLC-tandem MS (Expt. 1).

These are yes or no findings as the source states them, for the method shown. Binding seen in cells or lysates may run through a third protein. These calls come from enrichment with a bait or labelling near it, and not all partners need be listed. No binding means not detected with the bait. Where a sequence is shown, tags or fusion partners need not be part of it.

Drawing on publication PMC10914751, this text covers binding for five substances.

As to “DDB1 (endogenous) (from UniProt Q16531 1-1140)”, the binding entry in test [1] and in test [2] was “binds” each time.
Regarding “VprBP (endogenous) (from UniProt Q9Y4B6 1-1507)”, the binding result in test [1] and in test [2] was “binds” in each case.
Consider “CUL4A (endogenous) (from UniProt Q13619 1-759)”, for which the binding result in test [1] and in test [2] was “no binding” each time.
With “Cep152 (endogenous) (from UniProt O94986 1-1710)”, the binding result in test [1] and in test [2] was “binds” throughout.
Consider “CUL4B (endogenous) (from UniProt Q13620 1-913)”, for which the binding result in test [1] and in test [2] was “no binding” throughout.
